In paper PMC4140284, “Human UTY(KDM6C) Is a Male-specific N^ϵ-Methyl Lysyl Demethylase” (The Journal of Biological Chemistry, 2014):

System: UTY(KDM6C)
Assay: Crystal structure of UTY(KDM6C) complexes
Type: binding, human
Details: PDB 3ZPO

SMILES: O=C(O)CCNc1cc(N2CCc3ccccc3CC2)nc(-c2ccccn2)n1 [GSK-J1]
- binding mode in crystal structure (2.0 Å, compared with KDM6B·GSK-J1 complex): bound to the 2OG binding site identically within error to that observed with KDM6B·GSK-J1 complex
- translocation of active site iron (away from the HXE … H triad): ~2.4 Å
